{"source": "patent US20100004432", "about": "“APTAMER AGAINST MIDKINE AND USE THEREOF” (RIBOMIC INC., published 2010)", "key": {"pleiotrophin": {"molecular_target": "T1, pleiotrophin (UniProt P21246)", "T1 sequence (looked up, limits assumed)": "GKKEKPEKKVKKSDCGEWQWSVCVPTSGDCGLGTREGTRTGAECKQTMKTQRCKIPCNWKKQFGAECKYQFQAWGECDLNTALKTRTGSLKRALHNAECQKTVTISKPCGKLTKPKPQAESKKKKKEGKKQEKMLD", "test": "activity in cells", "details": "2'-F pyrimidines, purified recombinant protein, protein details: expressed in yeast; for functional effect of the aptamer (% of SEQ 5 inhibition of midkine): 100 nM RNA; for functional effect of the aptamer: pleiotrophin-driven migration, 100 nM"}, "[1]": {"molecular_target": "T2, midkine (full-length) (Homo sapiens) (UniProt P21741)", "T2 sequence (looked up, limits assumed)": "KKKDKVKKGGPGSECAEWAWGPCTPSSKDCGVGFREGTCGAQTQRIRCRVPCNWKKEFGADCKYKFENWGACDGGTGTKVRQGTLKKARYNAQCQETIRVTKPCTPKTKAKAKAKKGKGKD", "test": "activity in cells", "details": "purified recombinant protein, protein details: expressed in yeast; for functional effect of the aptamer (% of SEQ 5 inhibition): 100 nM RNA"}, "IgG1 (Homo sapiens)": {"tested_on": "IgG1 (Homo sapiens)", "test": "SPR", "details": "2'-F pyrimidines; RNA immobilized on SA chip; purified native protein; protein details: Calbiochem"}, "[2]": {"details": "2'-F pyrimidines, variant of SEQ ID NO:32"}}, "note": "For some of these results: Tags and fusion partners may be left off the protein sequences shown. For some of these results: The exact form of at least one protein or probe is not confirmed. For some of these results: A negative result means that nothing was seen under these conditions.", "data": [{"sequence": "GGAGAAGAGGAAGUGUGCACAGGGGUUGGUGUCGGGUGCAUACAGUAUAAGAUAGAGGACA [SEQ ID NO:33]", "values": [{"measurement": "functional effect of the aptamer (% of SEQ 5 inhibition of midkine)", "setting": "pleiotrophin; variant of SEQ ID NO:5", "result": 5}]}, {"sequence": "GGAGGAAGUGUGCACAGGGGUUGGUGUCGGGUGCAUACAGUAUAAG [SEQ ID NO:34]", "values": [{"measurement": "functional effect of the aptamer (% of SEQ 5 inhibition)", "setting": "[1]; 2'-F pyrimidines, variant of SEQ ID NO:5", "result": 0}]}, {"sequence": "GGGAAGGAGAAGAGGAAGUGCACAGGGGUUGGUGUCGGGUGCACAGUAUAAG [SEQ ID NO:41]", "values": [{"measurement": "functional effect of the aptamer (% of SEQ 5 inhibition of midkine)", "setting": "pleiotrophin; variant of SEQ ID NO:36", "result": 8.1}]}, {"sequence": "GGGAAGGAGGAAGUGCACCCGGGUUGGUGUCGGGUGCAC [SEQ ID NO:65]", "values": [{"measurement": "functional effect of the aptamer (% of SEQ 40 inhibition)", "setting": "[1]; 2'-F pyrimidines, 500 nM RNA, variant of SEQ ID NO:61", "result": 0}]}, {"sequence": "GGGAGAGGAACGCUACGAGGAGUAGCGGAAAGAAGCGGCGUAGC [SEQ ID NO:21]", "values": [{"measurement": "functional effect of the aptamer (% of SEQ 4 inhibition)", "setting": "[1]; 2'-F pyrimidines, 500 nM RNA, activity lost, variant of SEQ ID NO:17", "result": 0}]}, {"sequence": "GGGAGAGGAGAAGAGGAAAUAGUUAAGGGUGAAUUUGCGAAAGCUAUUUUAGUCGCAGUAGAGGACAGGAAUGAGGA [SEQ ID NO:1]", "values": [{"measurement": "functional effect of the aptamer", "setting": "pleiotrophin", "result": 0, "unit": "% inhibition"}]}, {"sequence": "GGGAGAGGAGAAGAGGAACGUGCUCUGUACGAGGAGUAGCCGGAAAGAAGGCGGUGUGUAGAGGACAGGAAUGAGA [SEQ ID NO:4]", "values": [{"measurement": "binding result", "setting": "IgG1 (Homo sapiens)", "result": "no binding"}, {"measurement": "functional effect of the aptamer", "setting": "pleiotrophin", "result": 8, "unit": "% inhibition"}]}, {"sequence": "GGGAGAGGAGAAGAGGAAGCACAGGGGUUGGUGUCGGGUGCAGUAUAAG [SEQ ID NO:37]", "values": [{"measurement": "functional effect of the aptamer (% of SEQ 5 inhibition)", "setting": "[1]; [2]", "result": 0}]}, {"sequence": "GGGAGAGGAGAAGAGGAAGUGCACAGGGGUUGGUGUCGGGUGCACAGUAUAAG [SEQ ID NO:36-1]", "values": [{"measurement": "functional effect of the aptamer (% of SEQ 5 inhibition of midkine)", "setting": "pleiotrophin; 2'-OMe on all of 5' single strand (nt 1-18), variant of SEQ ID NO:36", "result": 0}]}, {"sequence": "GGGAGAGGAGAAGAGGAAGUGCACAGGGGUUGGUGUCGGGUGCACAGUAUAAG [SEQ ID NO:36]", "values": [{"measurement": "functional effect of the aptamer (% of SEQ 5 inhibition of midkine)", "setting": "pleiotrophin; variant of SEQ ID NO:32", "result": 27}]}, {"sequence": "GGGAGAGGAGAAGAGGAAGUGUGCACAGGGGUUGGUGUCGGGUGCAUAC [SEQ ID NO:40]", "values": [{"measurement": "functional effect of the aptamer (% of SEQ 5 inhibition of midkine)", "setting": "pleiotrophin; variant of SEQ ID NO:36", "result": 0}]}, {"sequence": "GGGAGAGGAGAAGAGGAAGUGUGCACAGGGGUUGGUGUCGGGUGCAUACAG [SEQ ID NO:35]", "values": [{"measurement": "functional effect of the aptamer (% of SEQ 5 inhibition of midkine)", "setting": "pleiotrophin; variant of SEQ ID NO:32", "result": 0}]}, {"sequence": "GGGAGAGGAGAAGAGGAAGUGUGCACAGGGGUUGGUGUCGGGUGCAUACAGUAUAAG [SEQ ID NO:32]", "values": [{"measurement": "functional effect of the aptamer (% of SEQ 5 inhibition of midkine)", "setting": "pleiotrophin; variant of SEQ ID NO:5", "result": 11}]}, {"sequence": "GGGAGAGGAGAAGAGGAAGUGUGCACAGGGGUUGGUGUCGGGUGCAUACAGUAUAAGAUAGAGGACA [SEQ ID NO:31]", "values": [{"measurement": "functional effect of the aptamer (% of SEQ 5 inhibition of midkine)", "setting": "pleiotrophin; variant of SEQ ID NO:5", "result": 17}]}, {"sequence": "GGGAGAGGAGAAGAGGAAGUGUGCACAGGGGUUGGUGUCGGGUGCAUACAGUAUAAGAUAGAGGACAGGAAUGAGA [SEQ ID NO:5]", "values": [{"measurement": "binding result", "setting": "IgG1 (Homo sapiens)", "result": "no binding"}]}, {"sequence": "GGGAGAGGAGAGAGGAAGUGCACAGGGGUUGGUGUCGGGUGCACAGUAUAAG [SEQ ID NO:42]", "values": [{"measurement": "functional effect of the aptamer (% of SEQ 5 inhibition of midkine)", "setting": "pleiotrophin; variant of SEQ ID NO:36", "result": 8.7}]}, {"sequence": "GGGUUUUUUUUUUUUUUUGUGUGCACAGGGGUUGGUGUCGGGUGCAUACAGUAUAAG [SEQ ID NO:38]", "values": [{"measurement": "functional effect of the aptamer (% of SEQ 5 inhibition)", "setting": "[1]; [2]", "result": 0}]}, {"sequence": "TGGTTGGTGTGGTTGGTAAAAAAAAAAAAAAAA [Thrombin-S]", "values": [{"measurement": "functional effect (% of SEQ 40 inhibition)", "setting": "[1]; PS at marked linkages t'ggttggtgtggttgg't, 500 nM, control, single-stranded DNA", "result": 0}]}]}
